For this test, the target named is Notch1 (endogenous, primary mouse CD8+ T-cells) (mouse (endogenous in primary CD8+ T-cells)) (UniProt Q01705). The test is described as follows: affinity purification with mass spectrometry.

Amino acid sequences for entries named in this document (tags omitted). Residues count along the entry.
UniProt Q01705, residues 19-2531: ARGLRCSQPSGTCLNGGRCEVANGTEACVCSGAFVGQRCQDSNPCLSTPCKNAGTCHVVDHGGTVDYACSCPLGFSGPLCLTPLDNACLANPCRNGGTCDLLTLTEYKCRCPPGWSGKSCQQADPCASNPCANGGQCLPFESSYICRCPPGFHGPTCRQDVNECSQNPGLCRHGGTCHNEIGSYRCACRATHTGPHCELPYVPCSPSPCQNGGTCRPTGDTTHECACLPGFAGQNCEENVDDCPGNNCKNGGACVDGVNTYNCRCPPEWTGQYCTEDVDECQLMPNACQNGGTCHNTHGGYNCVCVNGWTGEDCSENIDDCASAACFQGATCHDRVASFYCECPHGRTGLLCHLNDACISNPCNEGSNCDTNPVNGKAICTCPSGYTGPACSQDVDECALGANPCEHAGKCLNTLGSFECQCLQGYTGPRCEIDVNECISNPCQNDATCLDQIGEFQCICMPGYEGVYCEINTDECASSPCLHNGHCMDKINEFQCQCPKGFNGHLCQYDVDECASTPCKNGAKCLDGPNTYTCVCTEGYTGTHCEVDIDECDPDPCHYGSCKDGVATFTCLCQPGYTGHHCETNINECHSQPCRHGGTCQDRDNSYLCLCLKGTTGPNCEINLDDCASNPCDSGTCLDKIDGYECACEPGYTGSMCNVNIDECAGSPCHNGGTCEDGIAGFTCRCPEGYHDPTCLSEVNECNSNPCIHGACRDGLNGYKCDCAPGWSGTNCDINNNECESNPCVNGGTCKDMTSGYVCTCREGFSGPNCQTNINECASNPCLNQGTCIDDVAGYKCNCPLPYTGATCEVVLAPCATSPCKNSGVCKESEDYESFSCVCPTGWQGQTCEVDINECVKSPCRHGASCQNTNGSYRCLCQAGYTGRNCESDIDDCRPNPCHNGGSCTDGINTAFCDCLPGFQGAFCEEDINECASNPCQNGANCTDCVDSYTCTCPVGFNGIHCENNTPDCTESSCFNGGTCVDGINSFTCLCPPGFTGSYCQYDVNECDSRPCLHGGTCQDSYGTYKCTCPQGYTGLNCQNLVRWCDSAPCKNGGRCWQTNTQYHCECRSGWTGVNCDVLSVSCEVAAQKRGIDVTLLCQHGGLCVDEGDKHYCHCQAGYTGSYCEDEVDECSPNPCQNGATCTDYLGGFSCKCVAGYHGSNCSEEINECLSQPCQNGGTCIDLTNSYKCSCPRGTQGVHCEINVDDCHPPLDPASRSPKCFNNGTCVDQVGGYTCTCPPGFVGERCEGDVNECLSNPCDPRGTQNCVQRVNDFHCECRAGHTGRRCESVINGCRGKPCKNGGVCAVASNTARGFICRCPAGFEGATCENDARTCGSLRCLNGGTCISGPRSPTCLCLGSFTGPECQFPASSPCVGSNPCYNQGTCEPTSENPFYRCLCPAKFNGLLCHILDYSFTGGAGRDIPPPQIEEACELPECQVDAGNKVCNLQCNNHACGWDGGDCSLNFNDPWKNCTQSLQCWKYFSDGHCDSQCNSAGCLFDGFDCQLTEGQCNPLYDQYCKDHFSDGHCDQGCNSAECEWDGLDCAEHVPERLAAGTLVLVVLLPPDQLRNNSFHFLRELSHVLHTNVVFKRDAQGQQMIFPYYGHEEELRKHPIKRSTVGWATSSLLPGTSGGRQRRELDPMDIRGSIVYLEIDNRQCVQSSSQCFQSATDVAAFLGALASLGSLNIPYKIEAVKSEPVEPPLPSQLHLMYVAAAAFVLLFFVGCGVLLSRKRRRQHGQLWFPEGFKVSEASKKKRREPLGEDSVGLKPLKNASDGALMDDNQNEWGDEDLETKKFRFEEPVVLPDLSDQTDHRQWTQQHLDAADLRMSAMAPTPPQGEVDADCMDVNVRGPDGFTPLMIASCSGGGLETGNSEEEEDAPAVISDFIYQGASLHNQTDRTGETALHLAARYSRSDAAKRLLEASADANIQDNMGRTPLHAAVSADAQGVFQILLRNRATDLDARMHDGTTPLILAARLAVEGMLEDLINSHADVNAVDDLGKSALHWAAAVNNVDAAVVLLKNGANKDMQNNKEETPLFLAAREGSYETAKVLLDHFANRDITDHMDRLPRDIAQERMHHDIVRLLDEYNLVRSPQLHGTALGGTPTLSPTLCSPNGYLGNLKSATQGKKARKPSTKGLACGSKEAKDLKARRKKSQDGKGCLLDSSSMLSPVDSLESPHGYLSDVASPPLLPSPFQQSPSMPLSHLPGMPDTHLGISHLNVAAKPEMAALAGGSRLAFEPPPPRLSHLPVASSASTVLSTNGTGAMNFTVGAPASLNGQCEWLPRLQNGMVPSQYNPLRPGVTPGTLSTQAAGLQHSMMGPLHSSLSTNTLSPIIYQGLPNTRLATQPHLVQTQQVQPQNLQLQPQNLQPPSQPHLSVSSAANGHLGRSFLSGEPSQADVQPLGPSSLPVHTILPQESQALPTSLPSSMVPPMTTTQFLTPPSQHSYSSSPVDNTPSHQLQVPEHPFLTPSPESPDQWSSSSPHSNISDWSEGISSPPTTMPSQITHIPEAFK
UniProt Q3TTA7: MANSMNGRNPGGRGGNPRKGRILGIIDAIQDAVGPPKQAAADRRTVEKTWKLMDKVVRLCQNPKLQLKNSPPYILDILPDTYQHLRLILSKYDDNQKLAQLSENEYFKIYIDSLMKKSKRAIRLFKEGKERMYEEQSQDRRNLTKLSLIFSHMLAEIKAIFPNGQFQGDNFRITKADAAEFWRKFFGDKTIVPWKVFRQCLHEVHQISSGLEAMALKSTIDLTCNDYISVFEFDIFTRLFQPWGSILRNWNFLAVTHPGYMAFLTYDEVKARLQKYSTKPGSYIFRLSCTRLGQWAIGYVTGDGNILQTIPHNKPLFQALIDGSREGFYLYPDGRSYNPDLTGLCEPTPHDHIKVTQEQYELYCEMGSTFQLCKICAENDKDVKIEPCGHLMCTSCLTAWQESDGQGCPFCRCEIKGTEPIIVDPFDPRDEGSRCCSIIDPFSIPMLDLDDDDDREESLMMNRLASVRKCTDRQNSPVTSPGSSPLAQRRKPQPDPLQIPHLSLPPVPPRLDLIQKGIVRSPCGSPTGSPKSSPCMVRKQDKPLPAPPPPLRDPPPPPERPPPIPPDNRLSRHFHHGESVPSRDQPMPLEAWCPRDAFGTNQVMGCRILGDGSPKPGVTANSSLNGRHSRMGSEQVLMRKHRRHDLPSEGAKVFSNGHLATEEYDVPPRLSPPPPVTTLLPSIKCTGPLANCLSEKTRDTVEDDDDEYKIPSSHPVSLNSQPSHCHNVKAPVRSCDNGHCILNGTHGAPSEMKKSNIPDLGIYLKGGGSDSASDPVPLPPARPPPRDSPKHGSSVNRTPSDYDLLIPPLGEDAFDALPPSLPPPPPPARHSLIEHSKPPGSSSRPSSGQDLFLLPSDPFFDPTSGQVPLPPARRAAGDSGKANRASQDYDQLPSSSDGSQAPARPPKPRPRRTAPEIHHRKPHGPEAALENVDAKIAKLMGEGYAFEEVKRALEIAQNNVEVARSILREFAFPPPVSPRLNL

Results are given in words; binding and its absence hold for the method and conditions named. Binding seen in cells or lysates may run through a third protein. A yes stands for co-enrichment or nearness to the bait. Other partners may have been found.

Consider “Casitas B-lineage lymphoma b (Cbl-b), endogenous in primary mouse CD8+ T-cells (from UniProt Q3TTA7 1-982) (enzyme)”, for which the binding entry is given as “binds”.

Values taken from publication doi:10.1101/2022.03.15.484378.
